The results in this text go back to PubChem BioAssay AID2685 (National Center for Advancing Translational Sciences (NCATS), 2010).

The other results are listed elsewhere or left out. These are further read-outs of the screen, such as a control signal, another cell line or another target. No call is given for them. Most of these compounds were active or inconclusive in the main read-out, so they are no random draw. The note in brackets gives the kind of curve behind each potency; many fits are weak.

The nature of this assay: qHTS Assay for Lipid Storage Modulators in Drosophila S3 Cells.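 On cell number change: cells counted by Cell Tracker Red CMTPX staining in the red channel.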 As to conditions: BODIPY lipid droplet fluorescence, 18-24 h; for cell number change: measured here: cell count max response, cells fed with added oleic acid. In short, it runs like this: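 Drosophila S3 cells loaded with oleic acid (400 uM, as added) and compounds at several concentrations; lipid droplets imaged by 488-nm laser-scanning cytometry, 500–530 nm intensity and object ratio to cell channel. Percent activity normalized to 20 uM Triacsin C.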

Where [1] appears, read: measured here: cell number channel AC50, cells fed with added oleic acid.
Where [2] appears, read: measured here: lipid fluorescence (Fed channel) AC50, cells fed with added oleic acid.

Turning to `CCN(CC)C(=O)CSc1nc2c(sc(=S)n2-c2ccccc2)c(=O)n1-c1ccccc1OC`, the cell number change turned out to be 22.2%.

As for `Cc1cc(C)c(S(=O)(=O)N2CCN(C(=O)c3ccc(-n4cncn4)c([N+](=O)[O-])c3)CC2)c(C)c1`, the cell number change is -30.9%. Under setting [1], the AC50 was 8.2 µM [falling, partial curve, poor fit].

As for `CCCNC(=O)COC(=O)/C=C/c1ccc2c(c1)OCO2`, the cell number change is -5.6%. Moreover, the AC50 under setting [1] was 0.092 µM [rising, partial curve, poor fit].

In the case of `CCn1c(COc2ccc(Cl)cc2)nnc1SCc1ccc(C#N)cc1`, the AC50 was 5.17 µM [rising, partial curve, poor fit] under setting [1] and 3.66 µM [rising, partial curve] under setting [2].

In the case of `O=C(CSc1nnnn1-c1ccccc1)CSc1nnnn1-c1ccccc1`, the cell number change came out at 124%. Also, the AC50 under setting [1] is 18.4 µM [rising, single point]. The AC50 under setting [2] is 29.1 µM [rising, single point].

For `O=c1cc(N2CCOCC2)[nH]c(=O)n1-c1ccc(Cl)cc1`, the cell number change is 10%. Moreover, under setting [2], the AC50 was 7.31 µM [rising, partial curve].

As to `O=C(OCc1nc2ccccc2s1)c1cnccn1`, the cell number change was determined as 2.14%. In addition, under setting [2], the AC50 is 29.1 µM [rising, single point].

For `O=C(Nc1ccnn1C1CCN(CC(O)CO)CC1)C1CCCC1` (stereo not drawn), the cell number change was -0.578%.

As for `COc1ccc(S(=O)(=O)Nc2ccc3c(c2)COC3=O)cc1OC`, the cell number change is -15.3%. For the same compound, under setting [1], the AC50 was 0.13 µM [falling, full curve, poor fit].

On to `CC(C)(C)C1CCc2c(sc(NC(=O)CSc3ncn[nH]3)c2C#N)C1` (stereo not drawn), for which the cell number change was -61.9%. Moreover, the AC50 under setting [1] is 29.1 µM [falling, single point]. In addition, under setting [2], the AC50 was 20.6 µM [falling, single point].

In the case of `Cc1ccc2nc(SCC(=O)NCc3ccc(F)cc3)[nH]c2c1`, the cell number change is -1.8%. Moreover, the AC50 under setting [2] is 9.2 µM [rising, partial curve].

In the case of `CC(Sc1nc2ccccc2c(=O)n1C)C(=O)N(C)C1CCCCC1` (stereo not drawn), the cell number change was -30.2%. Also, the concentration at half-maximal activity (AC50) under setting [1] is 16.4 µM [falling, single point]. In addition, under setting [2], the AC50 was 29.1 µM [falling, single point].

As to `O=C(NC1CC2CCCC(C1)N2Cc1ccco1)NC12CC3CC(CC(C3)C1)C2` (stereo not drawn), the cell number change amounted to 3.6%.

`Cc1ccc(-c2[nH]nc(N)c2N=Nc2cccc(Cl)c2C)cc1`: the cell number change was -61.4%. Under setting [1], the AC50 was 16.4 µM [falling, partial curve, poor fit].

For `Cc1cc(C)cc(-n2ncc3c2CCCC3NC(=O)CN2CCCC2=O)c1` (stereo not drawn), the cell number change was -21.8%. Moreover, the AC50 under setting [2] is 29.1 µM [falling, single point].

With `Cc1ccc(S(=O)(=O)c2nnn3c2nc(N2CCCCC2)c2ccccc23)cc1`, the cell number change was 5.94%. For the same compound, the AC50 under setting [1] was 0.461 µM [rising, partial curve, poor fit]. Also, the AC50 under setting [2] is 5.17 µM [rising, full curve].
